## Screening data, single-dose tests

Data taken from ChEMBL document CHEMBL3988442, “University of Dundee, Small-Polar-MMV Screening Library” (2021).

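Assay of Toxoplasma gondii numbers, read through their beta-galactosidase reporter with a colour substrate. Concentration: 50 µM. The record gives no direction; the compounds picked for IC50 retests had high values, so higher reads as fewer parasites. About 18,000 compounds were tested under these conditions; 0.94% (about 170) showed 50% or more at least once.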

The filed quantity is “Percent Effect” (%). The controls that fix the scale are not given in the record; negative values are as filed. The compounds are a random part of those screened.

* CCCn1nnnc1NCc1ccc(F)cc1 : 2.077%
* CCC(C)NC(=O)NCCCC(=O)N(CC)CC (stereo not shown) : 9.813%
* Cc1cc(NC(=O)N2CC[S+]([O-])C(C)(C)C2)nnc1C (stereo not shown) : 4.03%
* CN(Cc1ccnn1C)C(=O)c1ccc(Cl)cc1 : -3.758%
* Cc1ncc(S(N)(=O)=O)cc1CN : -0.05841%
* COCC(=O)N1CCN(C(=O)c2ncncc2Br)CC1 : -11.93%
* COC(=O)C(C)n1cnc2sc3c(c2c1=O)CCC3 (stereo not shown) : 9.368%
* N[C@@H]1CCOc2cc(F)ccc21 : 0.9541%
* Cc1cc(N2CCCC(N)C2)nc(C)n1 (stereo not shown) : -0.2899%
* NCc1ccc(NC(=O)c2ccccc2O)cc1 : 11.14%
* CN(CC1(O)CCCC1)c1ncccn1 : 6.357%
* CN(Cc1ccccc1)C(=O)c1cccnc1O : -5.889%
* c1ccc(-c2noc(CN3CCNCC3)n2)cc1 : -10.63%
* O=C1NCCN(Cc2nnsc2Cl)C1c1cccs1 (stereo not shown) : 4.73%
* O=S(=O)(NC1CC1)c1cccs1 : 2.206%
* Cc1ccc(NCc2cc[nH]n2)cc1S(C)(=O)=O : 3.632%
* CS(=O)(=O)NC1(CN)CCCCC1 : -6.113%
* Nc1ncnn1-c1ccc(C(F)(F)F)cn1 : 1.078%
* CCN(Cc1cscn1)Cc1nc(COC)no1 : 3.579%
* NCCNS(=O)(=O)c1cccc(I)c1 : -5.309%
* CS(=O)(=O)N1CCC(c2nc(-c3cccs3)no2)CC1 : -10.44%
* Cc1cccc(C(=O)NCC(C)N2CCOCC2)n1 (stereo not shown) : -6.672%
* Cc1cc(C(=O)NCc2cccnc2OC(C)C)on1 : -9.008%
* COCC(C)NS(=O)(=O)c1cccs1 (stereo not shown) : 0.227%
* O=C(NCC(O)C1CC1)c1cc(O)ccc1Cl (stereo not shown) : 1.768%
* CCC(=O)NCc1ccccc1CN1CCCC1CO (stereo not shown) : 16.92%
* CC(C)COc1ccc(NC(=O)Cn2cncn2)cn1 : 8.198%
* CCC(CC)NC(=O)Nc1ccccc1CC(=O)NC : 14.93%
* O=S1(=O)CC(C2CNC2)C1 : 25.29%
* CCOCC(=O)Nc1ccc(OC)c(-n2cnnn2)c1 : -2.354%
* CCCc1nc(C)cc(NCCN(C)S(C)(=O)=O)n1 : -12.51%
* Cc1noc(C)c1CC(=O)NC(C)(C)C : -10.07%
* O=C(N[C@H]1C[C@@H]2OCC[C@H]12)c1ccc2[nH]nnc2c1 : -2.048%
* O=C1N(CC2CC2)CCCC1(O)CN1CCSCC1 (stereo not shown) : -8.386%
* Cc1nc(NC2CC2)sc1C(=O)NCc1ccncc1 : 26.7%
* CCOC(=O)N1CCC(NC(CO)c2ccco2)CC1 (stereo not shown) : -1.846%
* COc1cccc(CNCCC(C)(C)O)n1 : 5.39%
* CCN1CCCC1CNC(=O)NCCN1CCOCC1 (stereo not shown) : 3.007%
* Cc1cc(N2CCCCC2)nc(CO)n1 : -4.358%
* CC1CCN(c2ccc(N)cn2)CC1 : 7.673%
* COCCN1C(=O)c2cccn2CC1CN (stereo not shown) : 17.85%
* CNS(=O)(=O)c1ccc(NCCn2ccnc2)c(F)c1 : 8.09%
* CCOC1CC(O)(CNC(=O)c2cnccn2)C1 (stereo not shown) : -4.086%

5 of the entries, repeated:

SMILES	effect
CN(Cc1ccccc1)C(=O)c1cccnc1O	-5.889
COCC(C)NS(=O)(=O)c1cccs1 (stereo not shown)	0.227
Cc1noc(C)c1CC(=O)NC(C)(C)C	-10.07
CS(=O)(=O)N1CCC(c2nc(-c3cccs3)no2)CC1	-10.44
CCOCC(=O)Nc1ccc(OC)c(-n2cnnn2)c1	-2.354